Data reported in patent US20160362463A1, “Pharmaceutical composition inhibiting interaction between MZF-1 and Elk-1” (China Medical University, priority 2015, published 2016).
Results are given in words; binding and its absence hold for the method and conditions named. Binding seen in cells or lysates may run through a third protein. Some entries that bind do so weakly or less than the wild type. For part of these data: Sequences can lack the tags named with a protein.

Amino acid sequences for entries named in this document (tags omitted). A change or cut given only in a name is not applied to a line headed by its entry. Chains listed by the source or under a name are the forms on record and can include a tag or linker.
endogenous MZF-1 (myeloid zinc finger 1) (P28698-2, form named): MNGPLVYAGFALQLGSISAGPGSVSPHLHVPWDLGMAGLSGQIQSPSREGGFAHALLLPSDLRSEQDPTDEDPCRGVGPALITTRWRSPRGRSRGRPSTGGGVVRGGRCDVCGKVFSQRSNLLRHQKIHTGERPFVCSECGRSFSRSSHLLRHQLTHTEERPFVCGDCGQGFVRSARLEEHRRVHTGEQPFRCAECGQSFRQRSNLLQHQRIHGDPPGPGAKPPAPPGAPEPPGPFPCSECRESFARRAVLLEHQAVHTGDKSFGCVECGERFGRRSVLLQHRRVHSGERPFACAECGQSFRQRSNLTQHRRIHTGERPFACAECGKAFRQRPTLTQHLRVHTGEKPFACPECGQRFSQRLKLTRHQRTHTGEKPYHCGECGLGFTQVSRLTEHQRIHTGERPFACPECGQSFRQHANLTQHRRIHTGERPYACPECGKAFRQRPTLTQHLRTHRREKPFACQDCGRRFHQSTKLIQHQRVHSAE
MZF-1-c-Myc fragment, amino acids 1-141 (P28698-2, form named): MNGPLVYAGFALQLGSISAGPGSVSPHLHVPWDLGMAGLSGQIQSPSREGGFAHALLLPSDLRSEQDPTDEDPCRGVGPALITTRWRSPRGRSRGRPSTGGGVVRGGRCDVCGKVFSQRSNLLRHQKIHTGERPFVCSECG
MZF-1-c-Myc fragment, amino acids 1-72 (P28698-2, form named): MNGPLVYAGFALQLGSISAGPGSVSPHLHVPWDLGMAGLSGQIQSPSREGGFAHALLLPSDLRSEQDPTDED

T1: FLAG-Elk-1 (amino acids 1-428) (human, UniProt P19419 1-428)
T1 construct: range 1-428; Full-length Elk-1 expressed in HEK-293 cells; not shown: FLAG tag
T1 sequence (looked up): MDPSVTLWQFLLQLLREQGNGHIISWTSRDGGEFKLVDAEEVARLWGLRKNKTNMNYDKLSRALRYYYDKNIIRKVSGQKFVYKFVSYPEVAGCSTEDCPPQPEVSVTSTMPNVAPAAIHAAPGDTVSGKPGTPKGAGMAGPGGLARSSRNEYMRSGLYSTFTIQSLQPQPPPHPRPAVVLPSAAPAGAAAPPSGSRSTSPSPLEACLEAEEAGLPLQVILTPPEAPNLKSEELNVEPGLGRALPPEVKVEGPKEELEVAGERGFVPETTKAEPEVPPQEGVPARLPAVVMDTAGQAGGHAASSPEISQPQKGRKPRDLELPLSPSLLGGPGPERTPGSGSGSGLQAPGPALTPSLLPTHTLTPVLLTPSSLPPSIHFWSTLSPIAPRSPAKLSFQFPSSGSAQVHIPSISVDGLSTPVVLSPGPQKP

T2: endogenous Elk-1 (Ets-like protein-1) (human) (UniProt P19419)
T2 sequence (looked up): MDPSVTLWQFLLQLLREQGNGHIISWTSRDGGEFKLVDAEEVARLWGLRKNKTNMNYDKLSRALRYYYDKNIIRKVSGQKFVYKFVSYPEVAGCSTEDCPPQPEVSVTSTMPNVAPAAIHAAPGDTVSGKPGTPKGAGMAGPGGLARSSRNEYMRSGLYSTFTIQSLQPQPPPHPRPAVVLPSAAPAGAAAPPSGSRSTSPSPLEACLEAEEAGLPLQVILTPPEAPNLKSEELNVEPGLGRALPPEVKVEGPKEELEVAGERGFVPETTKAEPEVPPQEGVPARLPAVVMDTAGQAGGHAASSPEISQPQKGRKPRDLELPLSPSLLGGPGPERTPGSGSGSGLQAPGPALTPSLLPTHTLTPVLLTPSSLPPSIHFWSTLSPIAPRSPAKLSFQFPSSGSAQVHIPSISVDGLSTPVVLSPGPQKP


Target: T3, FLAG-MZF-1 (amino acids 1-485) (human, UniProt P28698-2 1-485)
T3 construct: range 1-485; Full-length MZF-1 expressed in HEK-293 cells; not shown: FLAG tag
Test: co-immunoprecipitation, HEK-293 cells co-transfected with FLAG-MZF-1

binding | Molecule
binds | Elk-1-c-Myc fragment, amino acids 87-325 (protein, human, UniProt P19419 87-325, looked up, not shown: small tags and cut ends) SYPEVAGCSTEDCPPQPEVSVTSTMPNVAPAAIHAAPGDTVSGKPGTPKGAGMAGPGGLARSSRNEYMRSGLYSTFTIQSLQPQPPPHPRPAVVLPSAAPAGAAAPPSGSRSTSPSPLEACLEAEEAGLPLQVILTPPEAPNLKSEELNVEPGLGRALPPEVKVEGPKEELEVAGERGFVPETTKAEPEVPPQEGVPARLPAVVMDTAGQAGGHAASSPEISQPQKGRKPRDLELPLSP
binds | LARSSRNEYMRSG (peptide, UniProt P19419 145-157, looked up, not shown: small tags and cut ends) [Elk-1-c-Myc fragment, amino acids 145-157]
binds | Elk-1-c-Myc fragment, amino acids 145-428 (protein, human, UniProt P19419 145-428, looked up, not shown: small tags and cut ends) LARSSRNEYMRSGLYSTFTIQSLQPQPPPHPRPAVVLPSAAPAGAAAPPSGSRSTSPSPLEACLEAEEAGLPLQVILTPPEAPNLKSEELNVEPGLGRALPPEVKVEGPKEELEVAGERGFVPETTKAEPEVPPQEGVPARLPAVVMDTAGQAGGHAASSPEISQPQKGRKPRDLELPLSPSLLGGPGPERTPGSGSGSGLQAPGPALTPSLLPTHTLTPVLLTPSSLPPSIHFWSTLSPIAPRSPAKLSFQFPSSGSAQVHIPSISVDGLSTPVVLSPGPQKP
binds | Elk-1-c-Myc (amino acids 1-428) (protein, human, UniProt P19419 1-428, looked up, not shown: small tags and cut ends) MDPSVTLWQFLLQLLREQGNGHIISWTSRDGGEFKLVDAEEVARLWGLRKNKTNMNYDKLSRALRYYYDKNIIRKVSGQKFVYKFVSYPEVAGCSTEDCPPQPEVSVTSTMPNVAPAAIHAAPGDTVSGKPGTPKGAGMAGPGGLARSSRNEYMRSGLYSTFTIQSLQPQPPPHPRPAVVLPSAAPAGAAAPPSGSRSTSPSPLEACLEAEEAGLPLQVILTPPEAPNLKSEELNVEPGLGRALPPEVKVEGPKEELEVAGERGFVPETTKAEPEVPPQEGVPARLPAVVMDTAGQAGGHAASSPEISQPQKGRKPRDLELPLSPSLLGGPGPERTPGSGSGSGLQAPGPALTPSLLPTHTLTPVLLTPSSLPPSIHFWSTLSPIAPRSPAKLSFQFPSSGSAQVHIPSISVDGLSTPVVLSPGPQKP

Target: T1, FLAG-Elk-1 (amino acids 1-428)
Test: co-immunoprecipitation (anti-c-Myc IP, anti-FLAG blot), HEK-293 cells

binding | Molecule
binds | MZF-1-c-Myc fragment, amino acids 1-141 (from UniProt P28698 1-141)
binds | SDLRSEQDPTDED (peptide, UniProt P28698-2 60-72, looked up, not shown: small tags and cut ends) [MZF-1-c-Myc fragment, amino acids 60-72]

Second part, the molecule before the results:

Molecule | binding
MZF-1-c-Myc (amino acids 1-485) (from UniProt P28698 1-485) | binds
MZF-1-c-Myc fragment, amino acids 1-72 (from UniProt P28698 1-72) | binds

Target: T2, endogenous Elk-1 (Ets-like protein-1) (human)
Test: co-immunoprecipitation of endogenous proteins

binding | Molecule
binds | endogenous MZF-1 (myeloid zinc finger 1) (from UniProt P28698 1-485)
